Test results published in article PMC9972157.
No constants are given. Whether binding was seen depends on the method and setting. In cells and extracts the contact can be indirect. Some entries that bind do so weakly or less than the wild type.

Sequences of proteins named here, by UniProt entry; tags and fusion partners are left off.
UniProt P38936: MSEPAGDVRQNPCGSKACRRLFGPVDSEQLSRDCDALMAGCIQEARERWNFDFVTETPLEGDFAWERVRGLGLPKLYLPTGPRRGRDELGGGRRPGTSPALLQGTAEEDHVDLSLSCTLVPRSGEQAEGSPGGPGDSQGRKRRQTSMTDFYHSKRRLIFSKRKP

Target: T1, RNA‐binding protein Quaking‐5 (QKI‐5) (human (endogenous in H1299 and H460)) (UniProt Q96PU8)
T1 sequence: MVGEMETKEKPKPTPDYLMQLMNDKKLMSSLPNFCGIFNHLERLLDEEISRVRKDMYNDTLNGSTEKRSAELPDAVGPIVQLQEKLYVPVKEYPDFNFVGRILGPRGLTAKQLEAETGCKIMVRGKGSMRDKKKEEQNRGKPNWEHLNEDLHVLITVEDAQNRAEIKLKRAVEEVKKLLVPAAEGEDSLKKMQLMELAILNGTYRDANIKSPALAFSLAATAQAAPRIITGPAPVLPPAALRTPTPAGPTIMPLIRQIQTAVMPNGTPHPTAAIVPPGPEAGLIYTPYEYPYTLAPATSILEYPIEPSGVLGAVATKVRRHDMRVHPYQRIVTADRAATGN
Assay: co-IP; anti‐QKI‐5 antibody with protein A/G agarose beads, overnight at 4°C, RIPA lysates of H1299 and H460 cells; Western blot; input and IgG as controls

binding: binds
Substance: p21^Waf1/Cip1 (p21) (from UniProt P38936 1-164)
